From article PMC9559323
Results are given in words; binding and its absence hold for the method and conditions named. Binding seen in cells or lysates may run through a third protein. A result given as binding can be weak or reduced; the word gives no strength. Where a sequence is shown, tags or fusion partners need not be part of it.

Key:
[1] = biological target: translocated EspHwt (SBP-tagged EspH) (enteropathogenic Escherichia coli (EPEC)); experiment: pull-down; HeLa (or Caco-2BBe) cells, untransfected or transfected with HA-tagged ABR constructs, infected with EPEC strains; SBP-tagged translocated EspH precipitated with StAv agarose beads; co-precipitated ABR detected by immunoblot (anti-ABR or anti-HA)
[2] = biological target: EspHwt-eGFP (enteropathogenic Escherichia coli (EPEC)); experiment: co-IP; HeLa cells co-transfected with eGFP constructs and HA-tagged ABR; lysates (10 mM Tris pH 7.4, 150 mM NaCl, 0.5% NP-40) incubated with GFP-Trap agarose beads 4 hrs at 4°C; immunoblot with anti-eGFP and anti-HA

B1: endogenous active Bcr related (ABR) protein (protein, UniProt Q12979 1-859)
chain: MEPLSHRGLPRLSWIDTLYSNFSYGTDEYDGEGNEEQKGPPEGSETMPYIDESPTMSPQLSARSQGGGDGVSPTPPEGLAPGVEAGKGLEMRKLVLSGFLASEEIYINQLEALLLPMKPLKATATTSQPVLTIQQIETIFYKIQDIYEIHKEFYDNLCPKVQQWDSQVTMGHLFQKLASQLGVYKAFVDNYKVALETAEKCSQSNNQFQKISEELKVKGPKDSKDSHTSVTMEALLYKPIDRVTRSTLVLHDLLKHTPVDHPDYPLLQDALRISQNFLSSINEDIDPRRTAVTTPKGETRQLVKDGFLVEVSESSRKLRHVFLFTDVLLCAKLKKTSAGKHQQYDCKWYIPLADLVFPSPEESEASPQVHPFPDHELEDMKMKISALKSEIQKEKANKGQSRAIERLKKKMFENEFLLLLNSPTIPFRIHNRNGKSYLFLLSSDYERSEWREAIQKLQKKDLQAFVLSSVELQVLTGSCFKLRTVHNIPVTSNKDDDESPGLYGFLHVIVHSAKGFKQSANLYCTLEVDSFGYFVSKAKTRVFRDTAEPKWDEEFEIELEGSQSLRILCYEKCYDKTKVNKDNNEIVDKIMGKGQIQLDPQTVETKNWHTDVIEMNGIKVEFSMKFTSRDMSLKRTPSKKQTGVFGVKISVVTKRERSKVPYIVRQCVEEVEKRGIEEVGIYRISGVATDIQALKAVFDANNKDILLMLSDMDINAIAGTLKLYFRELPEPLLTDRLYPAFMEGIALSDPAAKENCMMHLLRSLPDPNLITFLFLLEHLKRVAEKEPINKMSLHNLATVFGPTLLRPSEVESKAHLTSAADIWSHDVMAQVQVLLYYLQHPPISFAELKRNTLYFSTDV
[1]
  binding: binds

B2: HA-tagged full-length (FL) human ABR (protein, UniProt Q12979 1-859)
chain: B1 chain
[2]
  binding: binds
[1]
  binding: binds
